Test results: PMC10893103, “Cyclodextrin-Enabled Enantioselective Complexation Study of Cathinone Analogs” (Molecules, 2024)

Tests used:
[1] = Chiral CE enantioseparation screening, pH 4.5
[2] = Affinity capillary electrophoresis (ACE), pH 7.4; conditions: 30 mM phosphate buffer pH 7.4; at the optimal CD concentration printed in brackets beside the value
Description: To assess the CD complex formation capability of the five cathinone derivatives, we devised a screening ACE method tailored to closely mimic physiological conditions. In a preliminary study, the ACE conditions were optimized regarding the type, pH, and concentration of the background electrolyte, the applied voltage, and the injection parameters. […] In order to avoid high Joule heat generation, sufficiently low voltage should be used; thus, after registering the Ohm plot (I-U plot), it was set to 15 kV. Throughout our ACE measurements, corrections for viscosity and ionic strength were systematically implemented to ensure precise determination of complex stability constants.
The CE experiments were performed on a HP ^3DCE and on an Agilent 7100 instrument (Agilent Technologies, Waldbronn, Germany) equipped with a photodiode array detector and the Chemstation software for data handling. Untreated fused silica capillaries (50 µm id, 48.5 cm total, 40 cm effective length) were purchased from Agilent. Conditioning of new capillary was conducted by flushing with 1 M NaOH followed by 0.1 M NaOH and water for 30 min each. Prior to all runs, the capillary was preconditioned by rinsing with BGE (2 min). The temperature of the capillary was set to 25 °C. UV detection was performed at 215 nm, and 15–25 kV voltage was applied. Samples were injected hydrodynamically (150 mbar·sec, optimized in the 50–500 mbar·sec range). The CE-pH measurements were carried out applying 25 kV voltage and 200 mbar·sec injection.
The background electrolyte of the CE-pH measurements contained 25 mM Na2HPO4 and 25 mM Na2B4O7, and the appropriate pH was adjusted with hydrochloric acid. During the ACE measurements, 30 mM phosphate buffer pH 7.4 (30 mM Na2HPO4—NaOH) was used. The running buffer was 20 mM acetic acid adjusting with 1 M Tris the pH to 4.5 during the chiral screening experiments. The BGEs contained CDs at various concentrations (0.25–20 mM) in the ACE experiments and 1-5-10 mM in the chiral method optimization experiments.
Stock solutions of each cathinone analog (mephedrone, flephedrone, 4-MEC, butylone, and MDPV) were prepared separately in methanol (1 mg/ml), and appropriate dilutions with water were used to prepare sample solutions for the CE-pH titration and for the ACE studies applying DMSO as EOF marker, while their mixture was used during the chiral separation studies.
The simplest way to determine the mobility is from the migration times (tmax) read from the electropherograms from which the apparent mobility could be calculated, but more accurate mobility values could be obtained by the determination with the Haarhoff–van der Linde (HVL) function based on Equation (2). (2) HVLδ(t;a0,a1,a2,a3δ)=a0/a2a3δ2πexp[−1/2(t−a1/a2)^2]/1/exp(a3δ)−1+1/2[1+erf(t−a1/2a2)] where a0 is the area of the HVL function, a1 is the position of the Gaussian component, a2 is the standard deviation of the Gaussian component, and a3δ is the peak shape distortion. The application of the HVL function is necessary in the case of accurate ACE measurements because, in several cases, the peaks are distorted due to the complex formation, which makes reading the migration times and calculating the mobility more difficult and imprecise.
The most popular technique for quantifying the analyte–ligand interaction with CE is mobility shift ACE.

[3] = Chiral CE enantioseparation screening, pH 4.5; remark: listed apart in the source
[4] = Chiral CE enantioseparation screening, pH 4.5; remark: listed apart in the source
[5] = Chiral CE enantioseparation screening, pH 4.5; remark: listed apart in the source
[6] = Chiral CE enantioseparation screening, pH 4.5; remark: listed apart in the source
[7] = 20 mM acetate buffer pH 4.5, CD 1 mM
[8] = 20 mM acetate buffer pH 4.5, CD 5 mM
[9] = 20 mM acetate buffer pH 4.5, CD 10 mM
[10] = 20 mM acetate buffer pH 4.5, CD 1-5-10 mM
[11] = 20 mM acetate buffer pH 4.5, CD 1-5 mM

O=S(=O)(O)OC[C@H]1O[C@@H]2O[C@H]3[C@H](O)[C@@H](O)[C@@H](O[C@H]4[C@H](O)[C@@H](O)[C@@H](O[C@H]5[C@H](O)[C@@H](O)[C@@H](O[C@H]6[C@H](O)[C@@H](O)[C@@H](O[C@H]7[C@H](O)[C@@H](O)[C@@H](O[C@H]8[C@H](O)[C@@H](O)[C@@H](O[C@H]1[C@H](O)[C@H]2O)O[C@@H]8COS(=O)(=O)O)O[C@@H]7COS(=O)(=O)O)O[C@@H]6COS(=O)(=O)O)O[C@@H]5COS(=O)(=O)O)O[C@@H]4COS(=O)(=O)O)O[C@@H]3COS(=O)(=O)O [HS-β-CD, heptakis-(6-O-sulfo)-β-CD]
Enantioseparation (Rs) of 4-MEC [1, 7]: 2.4
Enantioseparation (Rs) of 4-MEC [1, 8]: 8.7
Flephedrone maximal enantioresolution Rs [2]: 0.7
Mephedrone maximal enantioresolution Rs [2]: 6.2
Enantioseparation (Rs) of Flephedrone [3, 7]: 3.1
Enantioseparation (Rs) of Flephedrone [3, 8]: 8.1
Enantioseparation (Rs) of MDPV [4, 7]: 3.4
Enantioseparation (Rs) of MDPV [4, 8]: 11.7
Enantioseparation (Rs) of Butylone [5, 7]: 3.4
Enantioseparation (Rs) of Butylone [5, 8]: 9.2
Enantioseparation (Rs) of Mephedrone [6, 7]: 2.9
Enantioseparation (Rs) of Mephedrone [6, 8]: 9.2

O=S(=O)(O)CCCCOC[C@H]1O[C@@H]2O[C@H]3[C@H](O)[C@@H](O)[C@@H](O[C@H]4[C@H](O)[C@@H](O)[C@@H](O[C@H]5[C@H](O)[C@@H](O)[C@@H](O[C@H]6[C@H](O)[C@@H](O)[C@@H](O[C@H]7[C@H](O)[C@@H](O)[C@@H](O[C@H]8[C@H](O)[C@@H](O)[C@@H](O[C@H]1[C@H](O)[C@H]2O)O[C@@H]8COCCCCS(=O)(=O)O)O[C@@H]7COCCCCS(=O)(=O)O)O[C@@H]6COCCCCS(=O)(=O)O)O[C@@H]5COCCCCS(=O)(=O)O)O[C@@H]4COCCCCS(=O)(=O)O)O[C@@H]3COCCCCS(=O)(=O)O [6-(SB)7-β-CD, heptakis-(6-O-sulfobutyl)-β-CD]
Enantioseparation (Rs) of 4-MEC [1, 7]: 0
Enantioseparation (Rs) of 4-MEC [1, 8]: 0.7
Enantioseparation (Rs) of 4-MEC [1, 9]: 0.6
Enantioseparation (Rs) of Flephedrone [3, 7]: 0
Enantioseparation (Rs) of Flephedrone ([3]; 20 mM acetate buffer pH 4.5, CD 1 mM, listed as 6-(SB)7- β-CD): 0 0 0
Enantioseparation (Rs) of Flephedrone [3, 8]: 0
Enantioseparation (Rs) of Flephedrone ([3]; 20 mM acetate buffer pH 4.5, CD 5 mM, listed as 6-(SB)7- β-CD): 0 0 0
Enantioseparation (Rs) of Flephedrone [3, 9]: 0
Enantioseparation (Rs) of Flephedrone ([3]; 20 mM acetate buffer pH 4.5, CD 10 mM, listed as 6-(SB)7- β-CD): 0 0 0
Enantioseparation (Rs) of MDPV [4, 7]: 1.8
Enantioseparation (Rs) of MDPV [4, 8]: 2.6
Enantioseparation (Rs) of Butylone [5, 8]: 0.4
Enantioseparation (Rs) of Butylone [5, 9]: 0.6
Enantioseparation (Rs) of Mephedrone [6, 7]: 0
Enantioseparation (Rs) of Mephedrone [6, 8]: 0.2
Enantioseparation (Rs) of Mephedrone [6, 9]: 0.2

randomly methylated-α-CD [RAME-α-CD]
Enantioseparation (Rs) of 4-MEC [1, 10]: 0
Enantioseparation (Rs) of Flephedrone [3, 10]: 0
Enantioseparation (Rs) of MDPV [4, 10]: 0
Enantioseparation (Rs) of Butylone [5, 10]: 0
Enantioseparation (Rs) of Mephedrone [6, 10]: 0

hydroxypropylated-β-CD [HP-β-CD]
Enantioseparation (Rs) of 4-MEC [1, 7]: 0
Enantioseparation (Rs) of 4-MEC [1, 8]: 0.3
Enantioseparation (Rs) of 4-MEC [1, 9]: 0.3
Enantioseparation (Rs) of Flephedrone [3, 7]: 0
Enantioseparation (Rs) of Flephedrone [3, 8]: 0
Enantioseparation (Rs) of Flephedrone [3, 9]: 0
Enantioseparation (Rs) of MDPV [4, 7]: 0
Enantioseparation (Rs) of MDPV [4, 8]: 0.5
Enantioseparation (Rs) of MDPV [4, 9]: 0.4
Enantioseparation (Rs) of Butylone [5, 7]: 0
Enantioseparation (Rs) of Butylone [5, 8]: 0
Enantioseparation (Rs) of Butylone [5, 9]: 0
Enantioseparation (Rs) of Mephedrone [6, 7]: 0
Enantioseparation (Rs) of Mephedrone [6, 8]: 0.3
Enantioseparation (Rs) of Mephedrone [6, 9]: 0.3

CO[C@@H]1[C@@H](OC)[C@H]2O[C@H]3[C@H](OC)[C@@H](OC)[C@@H](O[C@H]4[C@H](OC)[C@@H](OC)[C@@H](O[C@H]5[C@H](OC)[C@@H](OC)[C@@H](O[C@H]6[C@H](OC)[C@@H](OC)[C@@H](O[C@H]7[C@H](OC)[C@@H](OC)[C@@H](O[C@H]8[C@H](OC)[C@@H](OC)[C@@H](O[C@@H]1[C@@H](COS(=O)(=O)O)O2)O[C@@H]8COS(=O)(=O)O)O[C@@H]7COS(=O)(=O)O)O[C@@H]6COS(=O)(=O)O)O[C@@H]5COS(=O)(=O)O)O[C@@H]4COS(=O)(=O)O)O[C@@H]3COS(=O)(=O)O [HDMS-β-CD, heptakis-(2,3-O-dimethyl, 6-O-sulfo)-β-CD]
Enantioseparation (Rs) of 4-MEC [1, 7]: 0.3
Enantioseparation (Rs) of 4-MEC [1, 8]: 1.5
Enantioseparation (Rs) of 4-MEC [1, 9]: 2.1
Enantioseparation (Rs) of Flephedrone [3, 7]: 0.8
Enantioseparation (Rs) of Flephedrone [3, 8]: 1.7
Enantioseparation (Rs) of Flephedrone [3, 9]: 2.6
Enantioseparation (Rs) of MDPV [4, 7]: 0.5
Enantioseparation (Rs) of MDPV [4, 8]: 1.9
Enantioseparation (Rs) of MDPV [4, 9]: 2.9
Enantioseparation (Rs) of Butylone [5, 7]: 0.8
Enantioseparation (Rs) of Butylone [5, 8]: 2.7
Enantioseparation (Rs) of Butylone [5, 9]: 4.0
Enantioseparation (Rs) of Mephedrone [6, 7]: 0.2
Enantioseparation (Rs) of Mephedrone [6, 8]: 1.6
Enantioseparation (Rs) of Mephedrone [6, 9]: 2.3

sulfated-γ-CD [S-γ-CD]
Enantioseparation (Rs) of 4-MEC [1, 7]: 0.5
Enantioseparation (Rs) of 4-MEC [1, 8]: 0.6
Enantioseparation (Rs) of 4-MEC [1, 9]: 0
Enantioseparation (Rs) of Flephedrone [3, 7]: 0
Enantioseparation (Rs) of Flephedrone [3, 8]: 0
Enantioseparation (Rs) of Flephedrone [3, 9]: 0
Enantioseparation (Rs) of MDPV [4, 7]: 0
Enantioseparation (Rs) of MDPV [4, 8]: 1.1
Enantioseparation (Rs) of MDPV [4, 9]: 1.5
Enantioseparation (Rs) of Butylone [5, 7]: 0.6
Enantioseparation (Rs) of Butylone [5, 8]: 0.7
Enantioseparation (Rs) of Butylone [5, 9]: 1.4
Enantioseparation (Rs) of Mephedrone [6, 7]: 0.7
Enantioseparation (Rs) of Mephedrone [6, 8]: 1.1
Enantioseparation (Rs) of Mephedrone [6, 9]: 1.0

hydroxypropylated-α-CD [HP-α-CD]
Enantioseparation (Rs) of 4-MEC [1, 9]: 0.6
Enantioseparation (Rs) of 4-MEC [1, 11]: 0
Enantioseparation (Rs) of Flephedrone [3, 9]: 0
Enantioseparation (Rs) of Flephedrone [3, 11]: 0
Enantioseparation (Rs) of MDPV [4, 9]: 0.3
Enantioseparation (Rs) of MDPV [4, 11]: 0
Enantioseparation (Rs) of Butylone [5, 9]: 0
Enantioseparation (Rs) of Butylone [5, 11]: 0
Enantioseparation (Rs) of Mephedrone [6, 9]: 0.3
Enantioseparation (Rs) of Mephedrone [6, 11]: 0

randomly methylated-γ-CD [RAME-γ-CD]
Enantioseparation (Rs) of 4-MEC [1, 10]: 0
Enantioseparation (Rs) of Flephedrone [3, 10]: 0
Enantioseparation (Rs) of MDPV [4, 10]: 0
Enantioseparation (Rs) of Butylone [5, 10]: 0
Enantioseparation (Rs) of Mephedrone [6, 10]: 0

sulfopropylated-γ-CD [SP-γ-CD]
Enantioseparation (Rs) of 4-MEC [1, 7]: 0
Enantioseparation (Rs) of 4-MEC [1, 8]: 0
Enantioseparation (Rs) of 4-MEC [1, 9]: 0.9
Enantioseparation (Rs) of Flephedrone [3, 7]: 0
Enantioseparation (Rs) of Flephedrone [3, 8]: 0
Enantioseparation (Rs) of Flephedrone [3, 9]: 0
Enantioseparation (Rs) of MDPV [4, 7]: 0
Enantioseparation (Rs) of MDPV [4, 8]: 0
Enantioseparation (Rs) of MDPV [4, 9]: 0
Enantioseparation (Rs) of Butylone [5, 7]: 0
Enantioseparation (Rs) of Butylone [5, 8]: 0
Enantioseparation (Rs) of Butylone [5, 9]: 0.4
Enantioseparation (Rs) of Mephedrone [6, 7]: 0
Enantioseparation (Rs) of Mephedrone [6, 8]: 0
Enantioseparation (Rs) of Mephedrone [6, 9]: 0.8

OC[C@H]1O[C@@H]2O[C@H]3[C@H](O)[C@@H](O)[C@@H](O[C@H]4[C@H](O)[C@@H](O)[C@@H](O[C@H]5[C@H](O)[C@@H](O)[C@@H](O[C@H]6[C@H](O)[C@@H](O)[C@@H](O[C@H]7[C@H](O)[C@@H](O)[C@@H](O[C@H]8[C@H](O)[C@@H](O)[C@@H](O[C@H]9[C@H](O)[C@@H](O)[C@@H](O[C@H]1[C@H](O)[C@H]2O)O[C@@H]9CO)O[C@@H]8CO)O[C@@H]7CO)O[C@@H]6CO)O[C@@H]5CO)O[C@@H]4CO)O[C@@H]3CO [γ-CD]
Enantioseparation (Rs) of 4-MEC [1, 11]: 0
Enantioseparation (Rs) of Flephedrone [3, 11]: 0
Enantioseparation (Rs) of MDPV [4, 11]: 0
Enantioseparation (Rs) of Butylone [5, 11]: 0
Enantioseparation (Rs) of Mephedrone [6, 11]: 0
